Data source: PubChem BioAssay AID720710 (VTT Finland, 2013)
The whole screen tested about 1,380 reagents; below is an unselected part. 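One array per condition without replicates; hydroxyurea arrays received 2 mM for 16 h plus 3 h recovery.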 The numbers tell different reagents against one gene apart.

Purpose: 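Knock-downs that leave cyclin E-high cells sensitive to replication stress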 (primary screen)
Cell system: human U-2 OS bone cancer cells, parental and a cyclin E (CCNE1) overexpressing line
Knock-down reagent: single siRNA against human genes, 1 µM siRNA in the printed spot mix
Duration: 67 h
Treatment: half the arrays: hydroxyurea 2 mM for 16 h, then 3 h recovery; other arrays untreated
Measured: 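EdU click signal imaged per DAPI-stained nucleus at 67 h; each spot divided by its subgrid median, then z-scored relative to non-targeting control spots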
Reading the numbers: EdU z-score, cyclin E line, hydroxyurea and EdU z-score, parental, hydroxyurea and EdU z-score, cyclin E line, untreated and EdU z-score, parental, untreated: higher = more DNA synthesis than non-targeting controls

gene knocked down | reagent no. | EdU z-score, cyclin E line, hydroxyurea | EdU z-score, parental, hydroxyurea | EdU z-score, cyclin E line, untreated | EdU z-score, parental, untreated
POT1 | 1 | -0.448 | -1.31 | -2.01 | -0.435
POT1 | 2 | -0.199 | 0.256 | -1.92 | 1.76
FOXP3 | 1 | -0.72 | -2.53 | -2.32 | -0.546
FOXP3 | 2 | 0.892 | 3.21 | -2.18 | 0.635
DNMT1 | 1 | -3.65 | 0.541 | -2.5 | -0.878
DNMT1 | 2 | 0.686 | 1.96 | -0.655 | 0.214
PARP1 | 1 | -0.906 | 0.0416 | -2.16 | -0.546
PARP1 | 2 | -0.114 | 2.7 | 0.629 | 1.17
TLK1 | 1 | -0.621 | -1.86 | -2.58 | -1.73
TLK1 | 2 | -0.379 | 0.739 | -0.197 | -1.07
TERF1 | 1 | 0.13 | -2.75 | -1.23 | -2.6
TERF1 | 2 | 1.23 | 0.524 | -0.827 | 0.754
FANCB | 1 | -1.08 | -2.33 | -5.82 | 1.27
FANCB | 2 | 0.267 | -1.25 | -0.618 | 1.52
GEN1 | 1 | -0.649 | -0.055 | -0.119 | -2.13
GEN1 | 2 | -0.621 | 2.74 | 0.0685 | -0.208
NHEJ1 | 1 | -0.414 | -0.509 | -0.436 | -0.85
NHEJ1 | 2 | 1.34 | 0.506 | 0.36 | 0.024
LOC651610 | 1 | 0.104 | -0.765 | -0.562 | 1
LOC651610 | 2 | 3.26 | 1.11 | 1.12 | 1.55
ZNRF2 | 1 | -0.939 | -0.828 | -0.894 | 0.398
ZNRF2 | 2 | 0.53 | 1.3 | -0.714 | 0.545
NAV2 | 1 | 0.36 | 0.195 | -3.36 | -2.02
NAV2 | 2 | 0.496 | 3.52 | -0.138 | 0.477
